Experiment [1] has as its target SOX2 (human) (UniProt P48431). Put plainly: native gel or EMSA; super-shift EMSA; OSKM-48h nuclear lysates with Cy5-labelled Fgf4 enhancer oligonucleotide containing the OCT/SOX composite motif; competitor oligonucleotides or antibodies added; 5% polyacrylamide, 0.5x TBE. In general terms: A gel shift assay detects complexes by their altered migration in electrophoresis.

Chains of the proteins cited; added tags and fusions are not shown.
UniProt P48431: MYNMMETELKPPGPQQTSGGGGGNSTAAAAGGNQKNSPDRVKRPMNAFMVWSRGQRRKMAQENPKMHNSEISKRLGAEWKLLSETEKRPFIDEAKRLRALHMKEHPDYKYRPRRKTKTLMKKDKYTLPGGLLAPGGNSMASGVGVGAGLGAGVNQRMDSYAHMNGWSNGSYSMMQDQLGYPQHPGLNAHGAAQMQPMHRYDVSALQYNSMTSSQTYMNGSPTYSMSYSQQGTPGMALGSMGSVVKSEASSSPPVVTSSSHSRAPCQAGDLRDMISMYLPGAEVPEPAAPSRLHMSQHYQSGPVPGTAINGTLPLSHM
UniProt Q61312: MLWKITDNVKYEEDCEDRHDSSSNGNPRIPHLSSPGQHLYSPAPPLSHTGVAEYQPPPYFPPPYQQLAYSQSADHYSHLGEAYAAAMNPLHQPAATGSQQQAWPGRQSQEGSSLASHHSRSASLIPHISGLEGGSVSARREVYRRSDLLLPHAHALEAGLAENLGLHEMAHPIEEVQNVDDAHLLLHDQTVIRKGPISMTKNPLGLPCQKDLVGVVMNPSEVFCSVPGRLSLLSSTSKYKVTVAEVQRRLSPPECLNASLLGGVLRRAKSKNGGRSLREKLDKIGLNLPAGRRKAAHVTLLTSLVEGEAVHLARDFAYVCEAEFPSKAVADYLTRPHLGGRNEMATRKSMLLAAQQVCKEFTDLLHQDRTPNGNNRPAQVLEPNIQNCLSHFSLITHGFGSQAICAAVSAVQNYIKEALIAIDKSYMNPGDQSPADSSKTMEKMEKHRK
UniProt Q01860: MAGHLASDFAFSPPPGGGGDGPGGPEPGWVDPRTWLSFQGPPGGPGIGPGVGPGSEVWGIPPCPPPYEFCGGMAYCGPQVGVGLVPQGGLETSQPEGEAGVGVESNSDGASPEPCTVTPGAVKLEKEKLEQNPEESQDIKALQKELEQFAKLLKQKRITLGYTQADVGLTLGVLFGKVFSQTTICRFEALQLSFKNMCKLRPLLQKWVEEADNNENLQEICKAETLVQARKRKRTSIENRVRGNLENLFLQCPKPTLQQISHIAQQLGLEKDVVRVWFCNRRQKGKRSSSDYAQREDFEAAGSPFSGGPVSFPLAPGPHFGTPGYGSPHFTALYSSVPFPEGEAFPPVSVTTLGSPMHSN
UniProt P01106: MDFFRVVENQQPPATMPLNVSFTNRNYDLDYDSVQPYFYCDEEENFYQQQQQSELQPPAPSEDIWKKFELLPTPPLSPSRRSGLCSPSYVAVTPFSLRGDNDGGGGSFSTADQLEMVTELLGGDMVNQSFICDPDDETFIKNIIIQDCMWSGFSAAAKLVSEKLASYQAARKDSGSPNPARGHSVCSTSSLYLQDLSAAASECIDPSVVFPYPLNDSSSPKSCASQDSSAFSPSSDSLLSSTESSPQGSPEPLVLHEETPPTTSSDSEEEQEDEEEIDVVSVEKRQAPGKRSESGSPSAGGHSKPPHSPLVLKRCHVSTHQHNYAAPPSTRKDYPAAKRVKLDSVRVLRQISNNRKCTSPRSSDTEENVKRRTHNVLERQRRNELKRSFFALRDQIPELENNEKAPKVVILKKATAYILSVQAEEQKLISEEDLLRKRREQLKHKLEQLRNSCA

In experiment [2] the target is TFAP2C (UniProt Q61312). In words: co-IP; lysate of reprogrammed cells at 48 h (300 mM NaCl, 2% Triton X-100, 0.2% sodium deoxycholate); anti-TFAP2C or IgG on Dynabeads A and G; blot for MYC; in the presence or absence of DNase.
The target of experiment [3] is TFAP2C (UniProt Q61312). Put plainly: native gel or EMSA; super-shift EMSA; GETM-48h nuclear lysates with Cy5-labelled Cdx2 enhancer oligonucleotide containing a TFAP2C site; competitor oligonucleotides or antibodies added; 5% polyacrylamide, 0.5x TBE.
For experiment [4], the target named is T1, EOMES (UniProt O54839).
T1 sequence: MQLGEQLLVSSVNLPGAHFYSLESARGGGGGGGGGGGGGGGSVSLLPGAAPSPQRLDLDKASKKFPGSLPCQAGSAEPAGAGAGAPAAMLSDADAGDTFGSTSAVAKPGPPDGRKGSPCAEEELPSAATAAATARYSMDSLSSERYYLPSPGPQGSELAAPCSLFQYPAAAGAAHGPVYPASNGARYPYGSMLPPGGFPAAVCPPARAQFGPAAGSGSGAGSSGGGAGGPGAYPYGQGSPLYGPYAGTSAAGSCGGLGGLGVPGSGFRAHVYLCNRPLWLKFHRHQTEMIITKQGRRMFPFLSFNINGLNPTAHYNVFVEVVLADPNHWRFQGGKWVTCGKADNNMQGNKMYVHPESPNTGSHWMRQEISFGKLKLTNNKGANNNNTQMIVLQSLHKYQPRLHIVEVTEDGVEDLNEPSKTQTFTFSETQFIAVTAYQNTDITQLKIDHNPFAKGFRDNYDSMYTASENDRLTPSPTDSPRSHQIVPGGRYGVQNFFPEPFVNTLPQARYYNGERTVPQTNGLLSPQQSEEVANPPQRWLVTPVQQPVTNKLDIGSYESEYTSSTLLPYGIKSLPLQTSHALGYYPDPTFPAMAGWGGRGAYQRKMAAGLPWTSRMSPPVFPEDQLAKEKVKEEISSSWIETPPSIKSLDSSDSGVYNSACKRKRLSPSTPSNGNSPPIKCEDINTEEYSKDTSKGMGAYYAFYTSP
Put plainly: co-IP; anti-EOMES or anti-ESRRB on Dynabeads A and G; blot for TFAP2C; constant EOMES with increasing ESRRB, or constant ESRRB with increasing EOMES (amounts of transfected plasmid).

These are yes or no findings as the source states them, for the method shown. For some of these results: Binding seen in cells or lysates may run through a third protein. Some binding calls cover weakened binding; strength is not graded here.

For three substances, binding results are on record in article PMC11798873.

Turning to OCT4 (from UniProt Q01860 1-360), the binding entry in experiment [1] is reported as “binds”.
On to MYC (from UniProt P01106 1-454), for which the binding entry in experiment [2] and in experiment [3] was “binds” throughout.
For the substance TFAP2C (from UniProt Q61312 1-449), the binding entry in experiment [4] is listed as “binds”.
